# According to patent publication US7528124B2, “1,3-dihydro-2H-indol-2-one derivative” (Taisho Pharmaceutical Co., Ltd., priority 2003, dated 2009):
# Protein sequences, listed by entry. Tags and fused reporters are not part of them.
# UniProt P30560, whole entry: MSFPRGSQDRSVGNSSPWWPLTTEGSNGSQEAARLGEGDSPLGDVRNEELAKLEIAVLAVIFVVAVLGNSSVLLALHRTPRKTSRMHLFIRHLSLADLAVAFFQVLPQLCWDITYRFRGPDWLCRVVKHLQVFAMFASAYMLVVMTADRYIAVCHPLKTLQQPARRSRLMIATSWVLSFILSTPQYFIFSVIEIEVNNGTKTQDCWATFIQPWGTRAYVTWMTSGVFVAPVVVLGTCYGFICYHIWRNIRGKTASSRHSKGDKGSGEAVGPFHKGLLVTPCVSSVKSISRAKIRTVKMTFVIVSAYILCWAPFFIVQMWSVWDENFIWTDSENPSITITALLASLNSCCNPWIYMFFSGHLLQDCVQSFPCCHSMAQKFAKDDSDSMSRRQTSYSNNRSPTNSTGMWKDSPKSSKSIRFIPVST
# Some of these results come from one statement about several compounds together. Some ranges recur; such a range may be that of the whole group of compounds.
# Biological target: T1, V1a receptor (Rattus norvegicus, UniProt P30560)
# T1 construct: The rats were decapitated, and the pituitary gland and liver were immediately excised; from tissue; host or cells: rat liver tissue, crude membrane preparation
# Test: V1a receptor binding experiment ([3H]Arg-vasopressin, membrane preparation from rat liver tissue)
# Settings: rat liver crude membranes, [3H]Arg-vasopressin 0.4 nmol/L, 60 minutes at 25° C.; read-out: concentration of the compounds which causes 50% inhibition (IC50), V1a receptor
row,SMILES,IC50 [nM]
1,"COc1ccc(S(=O)(=O)N2C(=O)C(c3ccccc3OC)(N3C[C@@H](F)C[C@H]3C(=O)N(C)C)c3cc(Cl)ccc32)c(OC)c1 (single isomer, unassigned) [Example 2]",10 to 1000
2,"COc1ccc(S(=O)(=O)N2C(=O)C(c3ccccc3OC)(N3CC(F)(F)C[C@H]3C(=O)N(C)C)c3cc(Cl)ccc32)c(OC)c1 (single isomer, unassigned) [Example 3, 1-[5-chloro-1-[(2,4-dimethoxyphenyl)sulfonyl]-3-(2-methoxyphenyl)-2-oxo-2,3-dihydro-1H-indol-3-yl]-4,4-difluoro-N,N-dimethyl-L-prolinamide]",10 to 1000
3,"COc1ccc(S(=O)(=O)N2C(=O)C(c3ccccc3OC)(N3C[C@H](F)C[C@H]3C(=O)N(C)C)c3cc(Cl)ccc32)c(OC)c1 (single isomer, unassigned) [Example 1]",10 to 1000
